These are yes or no findings as the source states them, for the method shown. In cells and extracts the contact can be indirect. Some results given as binding are weak or reduced against the parent protein; the word gives no strength.
What was measured:
[1] = target: FLAG-tagged PPARγ2 (pcDNA3.1-PPARγ2-FLAG) (UniProt P37238); experiment: co-IP; HEK293 cells transiently co-expressing T7-tagged NEDD4 and FLAG-tagged PPARγ2 or its PPxY mutants; immunoprecipitated with anti-PPARγ antibody (rabbit clone T.647.5 in Fig. 1C, mouse anti-PPARγ in Fig. 2B,C); 25 mM Tris-HCl, 150 mM NaCl, 1% NP-40
[2] = target: FLAG-PPARγ2∆Hinge (without amino acids 206–280) (UniProt P37238); experiment: co-IP; HEK293 cells transfected with T7-NEDD4 and FLAG-PPARγ2 or domain-deleted mutants, harvested 48 hours after transfection, MG132 (10 μM) 16 hr before harvesting; lysates immunoprecipitated with anti-FLAG antibody
[3] = target: FLAG-tagged PPARγ2 (pcDNA3.1-PPARγ2-FLAG) (UniProt P37238); experiment: as above
[4] = target: FLAG-PPARγ2∆LBD (without amino acids 281–505) (UniProt P37238); experiment: as above
[5] = target: Peroxisome proliferator-activated receptor gamma (PPARγ), endogenous mouse (mouse (endogenous in 3T3-L1 and mouse adipose tissue)) (UniProt P37238); experiment: co-IP; mouse epididymal adipose tissue lysates (500 μg) immunoprecipitated with 1 μg anti-PPARγ antibody (clone E-8), immunoblotted with anti-NEDD4 antibody
[6] = target: Peroxisome proliferator-activated receptor gamma (PPARγ), endogenous mouse (mouse (endogenous in 3T3-L1 and mouse adipose tissue)) (UniProt P37238); experiment: co-IP; 3T3-L1 adipocyte total lysates (500 μg) immunoprecipitated with 1 μg anti-PPARγ antibody (clone E-8), protein A/G beads overnight at 4 °C; 25 mM Tris-HCl, 150 mM NaCl, 1% NP-40; normal mouse IgG as negative control

Amino acid sequences for entries named in this document (tags omitted).
UniProt Q62940: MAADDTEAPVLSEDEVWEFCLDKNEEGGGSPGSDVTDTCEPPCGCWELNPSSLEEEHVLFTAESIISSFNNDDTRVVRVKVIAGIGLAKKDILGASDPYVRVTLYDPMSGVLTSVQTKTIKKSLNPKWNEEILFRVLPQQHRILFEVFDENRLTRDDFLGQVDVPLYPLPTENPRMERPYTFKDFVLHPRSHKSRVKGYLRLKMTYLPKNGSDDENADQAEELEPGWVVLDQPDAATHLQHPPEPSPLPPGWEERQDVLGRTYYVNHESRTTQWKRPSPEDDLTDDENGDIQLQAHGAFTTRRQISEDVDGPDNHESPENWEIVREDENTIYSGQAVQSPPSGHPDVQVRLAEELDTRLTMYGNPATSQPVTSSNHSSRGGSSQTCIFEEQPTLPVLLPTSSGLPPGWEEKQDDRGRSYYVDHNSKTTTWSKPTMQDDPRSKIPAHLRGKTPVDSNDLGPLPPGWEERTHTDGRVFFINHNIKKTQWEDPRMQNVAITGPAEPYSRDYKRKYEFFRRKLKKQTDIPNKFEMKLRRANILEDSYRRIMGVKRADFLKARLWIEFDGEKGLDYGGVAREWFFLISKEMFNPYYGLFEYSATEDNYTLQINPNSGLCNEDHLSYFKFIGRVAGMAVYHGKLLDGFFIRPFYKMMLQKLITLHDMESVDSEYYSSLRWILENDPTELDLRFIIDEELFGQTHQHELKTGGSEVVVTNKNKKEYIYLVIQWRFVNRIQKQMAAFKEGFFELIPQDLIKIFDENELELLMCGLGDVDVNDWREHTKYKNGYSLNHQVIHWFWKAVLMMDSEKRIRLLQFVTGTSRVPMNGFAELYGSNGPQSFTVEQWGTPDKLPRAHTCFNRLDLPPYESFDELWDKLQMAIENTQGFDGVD
UniProt P46935: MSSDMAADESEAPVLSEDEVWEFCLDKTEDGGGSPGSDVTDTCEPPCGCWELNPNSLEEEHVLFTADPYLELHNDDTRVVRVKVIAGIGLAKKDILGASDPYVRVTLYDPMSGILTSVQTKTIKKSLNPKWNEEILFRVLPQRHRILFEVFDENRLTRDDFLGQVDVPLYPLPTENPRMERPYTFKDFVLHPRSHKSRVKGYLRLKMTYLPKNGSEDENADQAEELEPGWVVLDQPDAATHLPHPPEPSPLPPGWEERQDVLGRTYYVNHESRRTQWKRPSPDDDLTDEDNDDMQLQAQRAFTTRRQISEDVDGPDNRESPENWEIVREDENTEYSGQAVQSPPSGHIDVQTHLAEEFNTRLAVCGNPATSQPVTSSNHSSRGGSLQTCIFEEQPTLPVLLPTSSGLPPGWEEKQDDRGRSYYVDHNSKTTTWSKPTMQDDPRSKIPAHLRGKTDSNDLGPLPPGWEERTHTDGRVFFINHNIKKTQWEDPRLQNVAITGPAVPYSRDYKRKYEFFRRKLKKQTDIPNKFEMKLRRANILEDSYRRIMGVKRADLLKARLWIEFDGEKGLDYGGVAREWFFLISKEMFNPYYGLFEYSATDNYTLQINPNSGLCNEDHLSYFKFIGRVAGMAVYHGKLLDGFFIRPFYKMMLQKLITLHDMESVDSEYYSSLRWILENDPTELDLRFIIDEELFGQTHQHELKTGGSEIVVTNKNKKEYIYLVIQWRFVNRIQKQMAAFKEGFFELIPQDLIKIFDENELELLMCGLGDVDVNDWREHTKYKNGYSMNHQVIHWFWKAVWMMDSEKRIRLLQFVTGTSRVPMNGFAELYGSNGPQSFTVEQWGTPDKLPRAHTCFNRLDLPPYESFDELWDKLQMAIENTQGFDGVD

Measured: binding

T7-tagged NEDD4 (rat, wild type; pRc-CMV-T7-NEDD4) (from UniProt Q62940 1-887) (enzyme)
binds: [1] | [2] | [3] | [4]

Neural precursor cell expressed developmentally down-regulated protein 4 (NEDD4), endogenous mouse (from UniProt P46935 1-887) (enzyme)
binds: [5] | [6]

Reference: paper PMC5137149
